Measurements as given in article PMC10289392.

Tests used:
[1] = system: Trx-WPBF; assay: EMSA; details: 20 fmol biotin-labelled dsDNA; 370 ng Trx-TaSAD, 500 ng Trx-WPBF, 625-2500 ng His-SPA; 100x/200x unlabelled competitor; recombinant protein; protein details: N-terminal thioredoxin and His6 (pET32-TEV); label: 3' biotin
[2] = system: Trx-TaSAD (Triticum aestivum cv. Renan (B genome copy)); assay: EMSA; details: 20 fmol biotin-labelled dsDNA; 370 ng Trx-TaSAD, 500 ng Trx-WPBF, 625-2500 ng His-SPA; 100x/200x unlabelled competitor; recombinant protein; protein details: N-terminal thioredoxin and His6 (pET32-TEV); label: 3' biotin

“AATCTGTTTTGCAAGCACCAAT (double strand) [Pb1-like]”: no binding [1]; no binding [2].
“AGATAACAGGAACAGACCAAT (double strand) [dof3]”: no binding [1]; no binding [2].
“CACACTTCTGCAAACAATACACCAG (double strand) [Pb2]”: no binding [1]; no binding [2].
“CTCGGTTGTAGAATTTATACTA (double strand) [em2]”: no binding [1]; no binding [2].
“GCATATTTGCGGAAGCAATGGC (double strand) [Pb3-like]”: no binding [1]; no binding [2].
“GCCAGATGTTTCAGTTAG (double strand) [dof1]”: no binding [1]; no binding [2].
“TGTGACATCTAAACTTAATAAGGTGA (double strand) [em1]”: no binding [1]; no binding [2].
“TTGTCACGGAGATGTGTTT (double strand) [dof2]”: no binding [1]; no binding [2].

For at least one entry, the source does not settle the construct or the ends of the probe. Negatives hold for the conditions tested.
